Data on 33 compounds can be found in the supplement of paper PMC11348887.

Molecules are shown by their SMILES. Counter-ions that a name gives are not always drawn. The list shows a part of the results. Small differences around the control level are noise.

This assay has as its system hPSC-derived cortical neurons (WA09). The experiment in a line: nucleus area z-score vs screen plate; higher = larger nuclei (more mature). To be noted: 5 µM; treatment: days 7-14 after plating, readout day 21.
In the case of `CNC(=C[N+](=O)[O-])NCCSCc1csc(CN(C)C)n1` [Nizatidine], the nucleus area z-score is -0.48. Take `C#C[C@]1(OC(C)=O)CC[C@H]2[C@@H]3CCC4=C[C@@H](OC(C)=O)CC[C@@H]4[C@H]3CC[C@@]21C` [Ethynodiol diacetate]: the nucleus area z-score was -0.241.

With `C[C@@H](O[C@H]1OCCN(Cc2nn(P(=O)(O)O)c(=O)[nH]2)[C@H]1c1ccc(F)cc1)c1cc(C(F)(F)F)cc(C(F)(F)F)c1` [Fosaprepitant dimeglumine salt], the nucleus area z-score was -1.73. Compound `CCOP(=O)(OCC)C(=Cc1cc(C(C)(C)C)c(O)c(C(C)(C)C)c1)P(=O)(OCC)OCC` showed a nucleus area z-score of -0.794. In the case of `Nc1nc(=S)c2ncn([C@H]3C[C@H](O)[C@@H](CO)O3)c2[nH]1` it was -0.0128. The figure for `CN(C)S(=O)(=O)c1ccc2c(c1)/C(=C/c1cc3c([nH]1)CCCC3)C(=O)N2` is 0.0819. Compound `O=C(O)c1ccccc1C(=O)Nc1ccc(-c2ccccc2)cc1` [Kartogenin] registered a nucleus area z-score of -0.11. In the case of `C[C@H](CS)C(=O)N1CCC[C@H]1C(=O)O` [Captopril] it was -0.214; in that of `CC[C@H]1OC(=O)[C@H](C)[C@@H](O[C@H]2C[C@@](C)(OC)[C@@H](O)[C@H](C)O2)[C@H](C)[C@@H](O[C@@H]2O[C@H](C)C[C@H](N(C)C)[C@H]2O)[C@](C)(O)C[C@@H](C)/C(=N\OCOCCOC)[C@H](C)[C@@H](O)[C@]1(C)O` [Roxithromycin], 0.423. `N#CN=C(NCCCCCCOc1ccc(Cl)cc1)Nc1ccncc1`: the nucleus area z-score was -20.2. In the case of `Cc1c(C(=O)N2CCOc3ccc(-c4ccc(N)nc4)cc3C2)ccc(S(C)(=O)=O)c1F`, the nucleus area z-score is -2.14. The figure for `COc1ccccc1OCC(O)CN1CCN(CC(=O)Nc2c(C)cccc2C)CC1` (stereo not drawn) [Ranolazine 2HCl] is 0.956. The figure for `Oc1ccc(C2CNCCc3c2cc(O)c(O)c3Cl)cc1` (stereo not drawn) [Fenoldopam mesylate] is 0.447; for `COc1ccccc1N1CCN(CC(O)COc2cccc3ccccc23)CC1` (stereo not drawn) [Naftopidil] it is -0.369; for `CCCCN1CCCC[C@H]1C(=O)Nc1c(C)cccc1C` [Levobupivacaine HCl] it is 0.379. As to `Cc1nn(C)c(COc2ccc(N3CCN(S(=O)(=O)N(C)C)CC3)cc2)c1-c1cccc2c(CCCOc3cccc4ccccc34)c(C(=O)O)n(CCN3CCOCC3)c12`, the nucleus area z-score is 1.05. For the compound `O=C(NC[C@H](O)CO)c1ccncc1Nc1ccc(I)cc1F`, the nucleus area z-score was -0.743. For `COc1cc(OC)c2c(=O)[nH]c(-c3cc(C)c(OCCO)c(C)c3)nc2c1`, the nucleus area z-score worked out at 1.68. The compound `CC(C)C[C@H](NC(=O)[C@H]1O[C@@H]1C(=O)O)C(=O)NCCCCN=C(N)N` returned a nucleus area z-score of -5.7.

`CN1CCN(C2CCN(C(=O)Nc3cc(Oc4ccc(NC(=O)C5(C(=O)Nc6ccc(F)cc6)CC5)c(F)c4)ccn3)CC2)CC1` [Golvatinib (E7050)]: the nucleus area z-score is -3.2. The figure for `CC(C)c1cc(C(C)C)c(CC(=O)NS(=O)(=O)Oc2c(C(C)C)cccc2C(C)C)c(C(C)C)c1` [Avasimibe] is 0.357; for `CS(=O)(=O)c1cccc(CNc2nc(Nc3ccc4c(c3)CCC(=O)N4)ncc2C(F)(F)F)c1` it is -0.803; for `CN(C)C/C=C/C(=O)Nc1cc2c(Nc3ccc(F)c(Cl)c3)ncnc2cc1O[C@H]1CCOC1` [Afatinib (BIBW2992)] it is -5.28. The figure for `Nc1nc2[nH]cc(CCc3ccc(C(=O)N[C@@H](CCC(=O)O)C(=O)O)cc3)c2c(=O)[nH]1` [Pemetrexed] is 0.484; for `O=c1c2ccccc2nc2n1CCc1c-2[nH]c2ccccc12` [Rutaecarpine] it is 0.182; for `CCN(CC)C(=O)c1cccc(C)c1` it is -0.874.

On to `NC(=O)c1ncn([C@@H]2O[C@H](CO)[C@@H](O)[C@H]2O)n1` [Ribavirin], for which the nucleus area z-score is -0.681.

In turn, `CC(C)(C(=O)O)c1ccc(C(O)CCCN2CCC(C(O)(c3ccccc3)c3ccccc3)CC2)cc1` (stereo not drawn) [Fexofenadine HCl] gave a nucleus area z-score of 0.526. In the case of `COc1cc2c(cc1OC)CC(=O)N(CCCN(C)C[C@H]1Cc3cc(OC)c(OC)cc31)CC2` [Ivabradine HCl] it was -0.391. Take `CC1(C)S[C@@H]2[C@H](NC(=O)[C@H](NC(=O)N3CCN(S(C)(=O)=O)C3=O)c3ccccc3)C(=O)N2[C@H]1C(=O)O` [Mezlocillin Sodium]: the nucleus area z-score is 0.0491. The figure for `Nc1ccc(S(=O)(=O)Nc2ccccn2)cc1` [Sulfapyridine] is -0.384; for `CN1C(C(=O)Nc2ccccn2)=C(O)c2sc(Cl)cc2S1(=O)=O` [Lornoxicam] it is 0.548; for `Nc1ccccc1NC(=O)c1ccc(CNc2nccc(-c3cccnc3)n2)cc1` [Mocetinostat (MGCD0103)] it is -16.1.
